Measurements reported in paper PMC9723941.
No constants are given. Whether binding was seen depends on the method and setting. Some entries that bind do so weakly or less than the wild type.

Chains of the proteins cited; added tags and fusions are not shown.
UniProt P25491: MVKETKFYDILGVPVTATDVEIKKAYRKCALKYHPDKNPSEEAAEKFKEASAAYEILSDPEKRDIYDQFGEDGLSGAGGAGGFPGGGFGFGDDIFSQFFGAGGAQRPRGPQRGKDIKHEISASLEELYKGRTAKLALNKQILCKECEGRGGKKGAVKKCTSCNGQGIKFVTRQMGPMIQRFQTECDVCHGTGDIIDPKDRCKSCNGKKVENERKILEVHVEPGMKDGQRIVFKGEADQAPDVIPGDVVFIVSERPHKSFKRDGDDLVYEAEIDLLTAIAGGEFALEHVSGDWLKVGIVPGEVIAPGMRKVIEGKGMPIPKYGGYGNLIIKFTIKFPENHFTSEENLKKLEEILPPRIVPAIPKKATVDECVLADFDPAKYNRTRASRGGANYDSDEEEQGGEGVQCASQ

Experiments:
[1] = biological target: His-tagged Luciferase (heat-aggregated on the sensor) (firefly) [luciferase: P08659]; assay: BLI; His-tagged Luciferase heat-aggregated (44 °C) on a Ni-NTA sensor with 0 to the indicated concentrations of As(III) at the aggregation step only; Ssa1 (1.5 μM) and Ydj1 (1 μM) together in solution; buffer A (25 mM Hepes-KOH pH 8, 15 mM magnesium acetate, 75 mM KCl) with 10 mM ATP and 2 mM DTT; 25 °C; both purified
[2] = biological target: His-tagged Luciferase (heat-aggregated on the sensor) (firefly) [luciferase: P08659]; assay: BLI; sequential binding to sensor-bound aggregates: Ydj1 followed by Ssa1 (Fig. S3B); Ydj1-Ssa1 followed by Hsp104 (Fig. S3C); aggregates formed with or without As(III); both purified

Ydj1 (from UniProt P25491 1-409)
binding [1]: binds
binding [2]: binds
